PubChem BioAssay AID1259424 – University of Nebraska Medical Center | 2018

- Screen: 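Seek colon cancer survival genes behaving like KSR1, using a six-gene signature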 (primary screen)
- System: human HCT116 colon cancer cells
- Reagents: siRNA pool against human genes, 50 nM
- Read-out: 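Six signature mRNAs by branched-DNA multiplex assay, scaled to two housekeeping genes and non-targeting median, log2; matched to mean KSR1 knockdown profile by Pearson correlation and euclidean distance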
- Reading the numbers: mean correlation with KSR1 profile and KSR1 correlation: higher = expression change more like KSR1 knockdown; mean distance from KSR1 profile: higher = expression change less like KSR1 knockdown
Here is a random part of about 14,000 reagents tested. 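Higher correlation or smaller distance means closer resemblance to KSR1 loss; control wells, including KSR1 knockdowns, recur on many plates.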 A reagent listed more than once was tested more than once; the source does not tell the runs apart. Not given: the time to read-out.

The opening 2 entries as a preview:
gene knocked down	mean correlation with KSR1 profile	mean distance from KSR1 profile	KSR1 correlation, replicate 1	KSR1 correlation, replicate 2	KSR1 correlation, replicate 3
AS3MT (arsenite methyltransferase)	0.12	4.34	0	0.0747	0.232
ABCF1 (ATP binding cassette subfamily F member 1)	0.0359	1.99	0.143	0.131	-0.157

Main list, repeating the preview:
gene knocked down	mean correlation with KSR1 profile	mean distance from KSR1 profile	KSR1 correlation, replicate 1	KSR1 correlation, replicate 2	KSR1 correlation, replicate 3
AS3MT (arsenite methyltransferase)	0.12	4.34	0	0.0747	0.232
ABCF1 (ATP binding cassette subfamily F member 1)	0.0359	1.99	0.143	0.131	-0.157
FMO3 (flavin containing dimethylaniline monoxygenase 3)	-0.235	2.23	0.0121	-0.548	-0.223
SPDL1 (spindle apparatus coiled-coil protein 1)	0.192	2.31	0.203	-0.0114	0.0577
EDEM3 (ER degradation enhancing alpha-mannosidase like protein 3)	-0.272	1.4	-0.468	-0.0631	-0.0889
ZSCAN16 (zinc finger and SCAN domain containing 16)	0.0277	2.04	-0.448	0.262	-0.122
MYO19 (myosin XIX)	0.0707	2.25	0.000126	0.0569	-0.182
TNS1 (tensin 1)	0.935	1.33	0.929	0.854	0.796
ZNF419 (zinc finger protein 419)	0.663	1.33	0.641	0.807	0.531
MAPK12 (mitogen-activated protein kinase 12)	-0.0412	2.93	0.215	0.221	-0.46
CCR5 (C-C motif chemokine receptor 5)	0.412	2.04	0.432	0.465	0.236
COX14 (cytochrome c oxidase assembly factor COX14)	0.191	2.31	0.118	0.0655	0.133
ZNF138 (zinc finger protein 138)	-0.091	1.45	-0.118	-0.191	0.0514
FANCA (FA complementation group A)	-0.453	3.32	-0.535	-0.475	-0.525
UBE2D3 (ubiquitin conjugating enzyme E2 D3)	0.25	2.95	0.279	0.138	0.238
VIRMA (vir like m6A methyltransferase associated)	0.0426	1.6	0.371	-0.00353	-0.145
RAB11FIP1 (RAB11 family interacting protein 1)	0.00959	1.25	0.0588	0.00574	0.0596
PAG1	0.341	2.24	0.562	0.213	0.258
ZNF19 (zinc finger protein 19)	0.077	3.04	-0.0734	-0.202	0.19
TWSG1 (twisted gastrulation BMP signaling modulator 1)	0.123	2.98	-0.118	0.113	0.525
MAGIX (MAGI family member, X-linked)	0.468	1.67	0.494	0.535	0.447
NR2C2AP (nuclear receptor 2C2 associated protein)	-0.361	3	-0.348	-0.339	-0.439
TRAF1 (TNF receptor associated factor 1)	-0.368	4.22	-0.335	-0.244	-0.595
ABLIM2 (actin binding LIM protein family member 2)	0.173	1.66	0.39	0.301	0.0626
MCAT	0.509	2.88	0.373	0.188	0.284
ARF4 (ARF GTPase 4)	-0.36	1.71	-0.552	-0.453	-0.29
AVPR1A (arginine vasopressin receptor 1A)	0.607	1.5	0.695	0.614	0.586
AVPR1A (arginine vasopressin receptor 1A)	0.356	2.39	0.388	0.405	0.102
UGT1A8 (UDP glucuronosyltransferase family 1 member A8)	0.273	1.89	0.352	0.212	0.202
CD99L2 (CD99 molecule like 2)	0.588	1.25	0.268	0.562	0.617
SETD7 (SET domain containing 7, histone lysine methyltransferase)	-0.0562	3.03	0.0412	-0.164	-0.112
SLC38A2	-0.235	1.41	-0.178	-0.241	-0.0568
C22orf46P (chromosome 22 open reading frame 46, pseudogene)	0.406	2.3	0.404	0.521	0.386
RLBP1 (retinaldehyde binding protein 1)	-0.838	1.68	-0.775	-0.614	-0.111
